Measurements from “University of Dundee, Small-Polar-MMV Screening Library” (2021), ChEMBL document CHEMBL3988442.

Protein sequences, listed by entry. Tags and fused reporters are not part of them. Residues count along the entry.
UniProt Q8IDJ8, 1-583: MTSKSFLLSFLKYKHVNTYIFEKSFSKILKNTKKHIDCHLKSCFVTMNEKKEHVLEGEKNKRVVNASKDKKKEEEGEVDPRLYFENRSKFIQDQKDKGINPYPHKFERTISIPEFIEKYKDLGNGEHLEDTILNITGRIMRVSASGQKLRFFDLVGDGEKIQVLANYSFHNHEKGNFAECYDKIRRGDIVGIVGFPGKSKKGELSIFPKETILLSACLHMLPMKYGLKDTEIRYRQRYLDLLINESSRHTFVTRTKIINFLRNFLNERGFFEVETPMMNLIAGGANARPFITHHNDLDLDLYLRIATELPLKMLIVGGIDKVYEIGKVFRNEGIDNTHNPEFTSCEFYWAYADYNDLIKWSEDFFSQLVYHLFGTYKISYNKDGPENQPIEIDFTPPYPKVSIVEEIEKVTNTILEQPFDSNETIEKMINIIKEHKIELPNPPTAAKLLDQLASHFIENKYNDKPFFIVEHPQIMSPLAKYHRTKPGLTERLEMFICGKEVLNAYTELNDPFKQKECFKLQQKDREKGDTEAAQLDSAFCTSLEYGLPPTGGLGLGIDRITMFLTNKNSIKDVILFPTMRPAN

The filed quantity is “Percent Effect” (%). The controls that fix the scale are not given in the record; negative values are as filed. Compounds were drawn at random from those tested, without regard to their results. A dash means the value is not listed here; it may have been measured.

T. brucei: 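Whole-parasite assay of Trypanosoma brucei over 72 hours; the read-out is not stated. Compounds at 30 µM. The record gives no direction; compounds that gave an IC50 in retests scored well above the rest, so higher reads as stronger inhibition. Values scatter widely below zero; nearly all retest evidence comes from the higher of the two concentrations used. Size under these conditions: about 64,000 compounds, about 940 of them at 50% or above in at least one test.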
PfKRS1: 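Enzyme assay of the cytosolic lysyl-tRNA synthetase in 384-well plates, read by luminescence. Target: Lysine-tRNA ligase, Plasmodium falciparum 3D7 (UniProt Q8IDJ8). Tested at 30 µM. Direction is inferred from only a few compounds that gave an IC50; most scored high, so higher reads as stronger inhibition. Of about 69,000 compounds tested this way, about 49 (0.071%) reached 50% or more in at least one test.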

{"compound": "O=C(O)C(F)(F)F.O=C(O)C(F)(F)F.O=C(O)C(F)(F)F.[H][C@@]12C[C@@H](OCc3cccnc3)CN1CCN(Cc1nccn1C)C2", "T. brucei": -10.1}
{"compound": "Cc1cnc(N2CCN3C[C@H](OCc4cccc(C)n4)C[C@H]3C2)nc1", "PfKRS1": 9.442}
{"compound": "COCc1nnc(C(=O)N(C)Cc2ccc(OC)cc2)o1", "T. brucei": 3.593, "PfKRS1": 4.295}
{"compound": "O=C(O)C(F)(F)F.[H][C@@]12CN(C(=O)CCOC)C[C@]1([H])C(=O)N(Cc1cccnc1)C2", "T. brucei": 6.129}
{"compound": "CCn1c(C)cc(C(=O)N2CCC(NC(=O)c3cc(C)no3)CC2)c1C", "T. brucei": -15.99, "PfKRS1": 0.3327}
{"compound": "O=C(O)C(F)(F)F.O=C(O)C(F)(F)F.[H][C@@]12CCN(Cc3cccc(C)n3)[C@]1([H])CC[C@@H](C(=O)Nc1cnccn1)O2", "T. brucei": -36.28}
{"compound": "CC(C)CCN1CCN(CC(=O)Nc2ccc3nsnc3c2)CC1", "T. brucei": -11.45, "PfKRS1": 1.163}
{"compound": "Cn1cncc1CN1C[C@@H]2OCCN(c3ncccn3)[C@@H]2C1", "PfKRS1": -2.392}
{"compound": "CCN(Cc1cccs1)C(=O)c1ccc(=O)n(C)c1", "T. brucei": -2.313, "PfKRS1": 7.006}
{"compound": "COC(=O)N1CCCC(NC(=O)NCc2cccc(C)n2)C1", "stereo": "centres unmarked", "T. brucei": -9.945, "PfKRS1": 0.1466}
{"compound": "O=C(c1ccnnc1)N1CCCn2nnc(COCC3CC3)c2C1", "PfKRS1": -1.364}
{"compound": "O=C(O)C(F)(F)F.O=C(c1ccccn1)N1CCC2(CC1)COC(COCC1CC1)C2", "stereo": "centres unmarked", "T. brucei": 39.74}
{"compound": "CCOCC(=O)N1CSCC1C(=O)N(C)Cc1ccco1", "stereo": "centres unmarked", "PfKRS1": -3.126}
{"compound": "CC1=C(C(=O)N(C)Cc2n[nH]c3c2CCCCC3)C(C)NC(=O)N1", "stereo": "centres unmarked", "T. brucei": -0.8908, "PfKRS1": -0.1643}
{"compound": "NC(=O)C1CCCN1Cc1cccc(NC(=O)c2cccs2)c1", "stereo": "centres unmarked", "T. brucei": -45.51, "PfKRS1": 2.722}
{"compound": "Cc1cc(C(=O)NCC(C)C)c2c(C3CCCN3)noc2n1", "stereo": "centres unmarked", "PfKRS1": 7.983}
{"compound": "COC(=O)CN1CCSC(c2ccccc2)C1", "stereo": "centres unmarked", "T. brucei": -5.49, "PfKRS1": 3.045}
{"compound": "COC(=O)CNC(=O)CSCc1nc(O)c2cc(C)sc2n1", "T. brucei": -60.63, "PfKRS1": -0.8377}
{"compound": "CC(C)COCCC(=O)Nc1c(-c2ccc(F)cc2)ncn1C", "T. brucei": -14.75, "PfKRS1": 1.668}
{"compound": "CC(C)C(NC(=O)N1CCS(=O)(=O)CC1)c1ccccc1Cl", "stereo": "centres unmarked", "T. brucei": -38.22, "PfKRS1": 1.28}
{"compound": "Cc1noc(C2(C)CCN(C(=O)C(C)C)CC2)n1", "PfKRS1": 2.702}
{"compound": "Cc1ccc(CC(=O)N2CCOC(c3nc(C(C)(C)C)n[nH]3)C2)cn1", "stereo": "centres unmarked", "T. brucei": -8.013, "PfKRS1": 10.24}
{"compound": "O=C(C1CCC1)N1CCC2(CCCN2CC2CC2)CC1", "PfKRS1": 6.09}
{"compound": "O=C(Nc1cc(C(F)(F)F)ccc1Cl)c1ccc(N2CCOCC2)nn1", "T. brucei": -49.07, "PfKRS1": 4.146}
{"compound": "COCCNC(=O)C1CN(Cc2ccncc2)Cc2ccnn2C1.O=C(O)C(F)(F)F.O=C(O)C(F)(F)F.O=C(O)C(F)(F)F", "stereo": "centres unmarked", "T. brucei": -12.44}

Some entries from above, unchanged:

compound,T. brucei,PfKRS1
COC(=O)CN1CCSC(c2ccccc2)C1 (centres unmarked),-5.49%,3.045%
O=C(O)C(F)(F)F.[H][C@@]12CN(C(=O)CCOC)C[C@]1([H])C(=O)N(Cc1cccnc1)C2,6.129%,-
O=C(Nc1cc(C(F)(F)F)ccc1Cl)c1ccc(N2CCOCC2)nn1,-49.07%,4.146%